# Laboratory results: paper PMC10610214 (Pharmaceuticals, 2023)
# System: P-gp (MDR1)
# Assay: in vitro
# Conditions: dog, MDCK-MDR1
# Procedure: Specifically, MDCKII-MDR1 cells (1 × 10^5 cell/cm^2) were seeded on polyester 12-well Transwell inserts (pore size: […], diameter: 12 mm, apical volume: 0.5 mL, basolateral: volume 1.5 mL) and cultured for 5–7 days to reach full differentiation as per TEER readings > 250 Ω·cm. […] After an incubation time of 2 h, samples were removed from the apical and basolateral side of the monolayer and were stored at −80 °C until further analysis.
# The Papp was calculated according to the following equation (units of cm/s):(1) Papp=Va/area×time×Drugacceptor/Druginitial where “Va” is the volume in the acceptor well, “time” is the total transport time, “area” is the surface area of the membrane, “[Drug]initial” is the initial drug concentration in the AP or BL chamber, and “[Drug]acceptor” is the concentration of the drug in the acceptor chamber.
# The ER was calculated using the following equation:ER = Papp, BL-AP/Papp, AP-BL(2) where “Papp, BL-AP” is the apparent permeability of basal-to-apical transport, and “Papp, AP-BL” is the apparent permeability of apical-to-basal transport.
structure (smiles),measurement,value
"CN1C(=O)CN=C(c2ccccc2)c2cc(Cl)ccc21 [Diazepam, reference compound]","Papp A→B at 2 h, 75 μM",136 ± 17 nm/s
same,"Papp B→A at 2 h, 75 μM",119 ± 15 nm/s
same,"efflux ratio at 2 h, 75 μM",0.89
